Data taken from PubChem BioAssay AID488949, deposited by NCATS (2010).

By UniProt entry, the sequences of proteins in these tests, tags left out.
UniProt Q99549, whole entry, target on record: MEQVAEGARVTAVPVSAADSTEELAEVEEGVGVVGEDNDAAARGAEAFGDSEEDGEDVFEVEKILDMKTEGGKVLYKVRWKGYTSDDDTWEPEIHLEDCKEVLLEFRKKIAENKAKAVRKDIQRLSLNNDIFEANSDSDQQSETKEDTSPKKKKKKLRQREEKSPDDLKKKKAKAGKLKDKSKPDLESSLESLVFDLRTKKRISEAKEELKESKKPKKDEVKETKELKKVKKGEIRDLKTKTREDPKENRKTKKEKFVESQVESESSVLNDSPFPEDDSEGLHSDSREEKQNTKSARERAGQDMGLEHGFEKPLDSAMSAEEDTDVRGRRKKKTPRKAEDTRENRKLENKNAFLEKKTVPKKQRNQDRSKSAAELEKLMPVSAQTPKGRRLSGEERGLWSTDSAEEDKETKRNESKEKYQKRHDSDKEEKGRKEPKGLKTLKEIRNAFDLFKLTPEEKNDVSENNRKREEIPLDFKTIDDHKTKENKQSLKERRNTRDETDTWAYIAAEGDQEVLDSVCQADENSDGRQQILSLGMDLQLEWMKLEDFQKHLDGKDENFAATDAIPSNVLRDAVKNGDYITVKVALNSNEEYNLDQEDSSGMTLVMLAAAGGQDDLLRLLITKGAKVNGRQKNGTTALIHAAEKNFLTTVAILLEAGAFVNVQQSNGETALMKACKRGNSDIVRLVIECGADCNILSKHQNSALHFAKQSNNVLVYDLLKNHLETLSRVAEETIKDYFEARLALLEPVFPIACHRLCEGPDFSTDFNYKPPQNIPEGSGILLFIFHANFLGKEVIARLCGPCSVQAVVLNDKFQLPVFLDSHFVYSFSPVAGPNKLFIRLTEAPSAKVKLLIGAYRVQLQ

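MPP8 protein and a biotin-tagged H3K9me3 histone peptide, with AlphaScreen signal from their binding read after 30 minutes with compound at room temperature. Compounds were run as an eight-step series spanning roughly 0.0037 to 110 µM. The number is the fitted AC50, the concentration giving half the maximal drop in binding signal; a lower value means a more potent inhibitor. Calls come from an activity score built from curve class and fitted AC50: 0 inactive, 1–39 inconclusive, 40–100 active.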

Values are in µM. Every entry below has the call inconclusive. These entries are mostly ones the record files as inconclusive; other results of the assay are not listed here. A potency from a partial, single-point or poor curve is only a rough figure. Some entries filed as inconclusive have a full curve. Activity scores are not listed here. An entry listed twice with the same setting is a separate test.

structure,fitted potency (µM),curve as filed
CC(=O)NCCc1ccc(O)c(O)c1,100,"inhibitor, single point"
CCC1(O)CC2CN(CCc3c([nH]c4ccccc34)[C@@](C(=O)OC)(c3cc4c(cc3OC)N(C)C3[C@]45CCN4CC=C[C@@](CC)([C@@H](OC(C)=O)[C@]3(O)C(=O)OC)[C@H]45)C2)C1 (some centres undefined),56.23,"inhibitor, partial curve"
O=C(CCCCCN1CCN(c2ccccc2-c2ccccc2)CC1)NC1CCCc2ccccc21 (centres undefined),37.69,"inhibitor, single point"
COC(=O)c1cc2c(cn1)[nH]c1ccccc12,89.13,"inhibitor, single point"
CCCN(CCC)[C@H]1CCc2c(F)ccc(O)c2C1,56.23,"inhibitor, partial curve"
Nc1nc(Cl)nc2c1ncn2[C@@H]1O[C@H](CO)[C@H](O)[C@H]1O,5.012,"inhibitor, full curve, poor fit"
O=C(c1cc(O)c(O)c([N+](=O)[O-])c1)c1ccccc1F,37.69,"inhibitor, single point"
CC(=O)N[C@@H](Cc1c[nH]c2ccccc12)C(=O)OCc1cc(C(F)(F)F)cc(C(F)(F)F)c1,56.23,"inhibitor, partial curve"
NC(=Nc1ccccc1)NC(=O)c1nc(Cl)c(N)nc1N,39.81,"inhibitor, full curve"
Cn1cc(C(F)(F)F)nc1-c1ccc(OCC(O)CNCCOc2ccc(O)c(C(N)=O)c2)cc1 (centres undefined),28.18,"inhibitor, full curve, poor fit"
COc1ccc2c(c1)c(CC(=O)N1CCOCC1)c(C)n2C(=O)c1ccc(Cl)cc1,89.13,"inhibitor, single point"
OCCN1CCN(CCCN2c3ccccc3Sc3ccc(C(F)(F)F)cc32)CC1,37.69,"inhibitor, single point"
COc1ccc2c(c1)CCC1C2CC[C@@]2(C)C1CC[C@@H]2NCCCCCCN1C(=O)C=CC1=O (some centres undefined),39.81,"inhibitor, partial curve"
CCCCCCCC/C=C\CCCCCCCC(=O)NCCc1ccc(O)c(O)c1,39.81,"inhibitor, partial curve"
COc1cc2c(cc1O)CCC1C2CC[C@]2(C)[C@@H](O)CC[C@@H]12 (some centres undefined),50.12,"inhibitor, partial curve"
Oc1ccc(Cn2cc[nH]c2=S)cc1,100,"inhibitor, single point"
C[N+]1(C)CCC(OC(=O)C(c2ccccc2)c2ccccc2)CC1,35.48,"inhibitor, partial curve"
S=C(S)N1CCCC1,79.43,"inhibitor, partial curve, poor fit"
C[N+](C)(C)CCOC(=O)CBr,79.43,"inhibitor, partial curve"
CN1CCN(CC/C=C2/c3ccccc3Sc3ccc(S(=O)(=O)N(C)C)cc32)CC1,44.67,"inhibitor, partial curve"
Cc1c(OCC(F)(F)F)ccnc1CS(=O)c1nc2ccccc2[nH]1 (centres undefined),79.43,"inhibitor, single point"
Cc1c(OCC(F)(F)F)ccnc1CS(=O)c1nc2ccccc2[nH]1 (centres undefined),23.78,"inhibitor, single point"
O=C(c1ccc(Cl)cc1)N1CCN(c2ccc([N+](=O)[O-])c3ncccc23)CC1,5.323,"inhibitor, single point"
CN1CCN(C2=Nc3ccccc3Oc3ccc(Cl)cc32)CC1,39.81,"inhibitor, full curve, poor fit"
c1cc(CN2CCCCC2)cc(OCCCNc2nc3ccccc3s2)c1,35.48,"inhibitor, full curve"
O=C(c1cc(O)c(O)c([N+](=O)[O-])c1)c1ccccc1F,89.13,"inhibitor, partial curve, poor fit"
CN(C)[C@@H]1C(=O)C(C(N)=O)=C(O)[C@@]2(O)C(=O)C3=C(O)c4c(O)ccc(Cl)c4[C@@H](O)[C@H]3C[C@@H]12,29.93,"inhibitor, single point"
N#CC(=C(\N)Sc1ccccc1N)/C(C#N)=C(/N)Sc1ccccc1N,79.43,"inhibitor, partial curve, poor fit"
O=C(O)C1CN(CCCP(=O)(O)O)CCN1 (centres undefined),89.13,"inhibitor, single point"
CN1C[C@@H](CS(=O)(=O)N(C)C)C[C@@H]2c3cccc4c3c(cn4C)C[C@H]21,44.67,"inhibitor, partial curve"
Cc1ccccc1N1CCN(S(=O)(=O)C[C@]23CCC(CC2NC(=O)[C@@H](N)CCS(C)(=O)=O)C3(C)C)CC1 (some centres undefined),50.12,"inhibitor, partial curve"
CN1C[C@H](C(=O)N[C@]2(C)O[C@@]3(O)C4CCCN4C(=O)[C@H](Cc4ccccc4)N3C2=O)C[C@@H]2c3cccc4[nH]cc(c34)C[C@H]21 (some centres undefined),5.012,"inhibitor, full curve"
OCCN1CCN(CCCN2c3ccccc3Sc3ccc(C(F)(F)F)cc32)CC1,79.43,"inhibitor, partial curve, poor fit"
CN(C)c1cc2c(Nc3ccc4c(cnn4Cc4ccccc4)c3)ncnc2cn1,39.81,"inhibitor, full curve"
CN=C(NC#N)NCCSCc1nc[nH]c1C,33.59,"inhibitor, single point"

For reference, 2 entries once more:

structure	fitted potency (µM)	curve as filed
CN(C)c1cc2c(Nc3ccc4c(cnn4Cc4ccccc4)c3)ncnc2cn1	39.81	inhibitor, full curve
CN(C)[C@@H]1C(=O)C(C(N)=O)=C(O)[C@@]2(O)C(=O)C3=C(O)c4c(O)ccc(Cl)c4[C@@H](O)[C@H]3C[C@@H]12	29.93	inhibitor, single point